Numbering of substitutions follows the chain as printed. Tags and fusion partners may be left off the protein sequences shown.
Assays:
[1] = test system: T1, Hermes transposase wild type (Musca domestica); test: activity assay; conditions: 5'-biotin on SEQ 11 strand; 5'-phosphate on SEQ 12 strand; variant used not explicit, wild type insertion dataset described in p29; 10 mM MgCl2, 100 mM NaCl, MOPS pH 7.5, 30 C; purified recombinant protein; label: biotin
T1 sequence: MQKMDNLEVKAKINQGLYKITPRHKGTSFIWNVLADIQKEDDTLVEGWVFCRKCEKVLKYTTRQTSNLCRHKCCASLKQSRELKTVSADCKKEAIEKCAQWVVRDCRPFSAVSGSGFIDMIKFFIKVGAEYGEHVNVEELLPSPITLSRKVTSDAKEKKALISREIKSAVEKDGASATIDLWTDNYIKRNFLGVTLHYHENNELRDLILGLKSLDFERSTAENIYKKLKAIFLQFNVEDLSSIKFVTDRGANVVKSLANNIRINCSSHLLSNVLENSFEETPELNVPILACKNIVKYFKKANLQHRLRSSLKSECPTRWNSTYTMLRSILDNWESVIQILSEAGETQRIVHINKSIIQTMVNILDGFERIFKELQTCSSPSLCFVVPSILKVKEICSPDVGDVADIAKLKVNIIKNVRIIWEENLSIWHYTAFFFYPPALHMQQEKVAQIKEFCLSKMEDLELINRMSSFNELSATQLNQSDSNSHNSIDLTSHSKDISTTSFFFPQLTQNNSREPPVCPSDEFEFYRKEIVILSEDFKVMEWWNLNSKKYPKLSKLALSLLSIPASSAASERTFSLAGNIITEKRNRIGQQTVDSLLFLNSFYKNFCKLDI

[2] = test system: T2, Hermes transposase triple mutant (Musca domestica); test: enzyme reaction in vitro; conditions: 5'-phosphate on SEQ 9 strand; dimeric mutant; efficient strand transfer and fragmentation; Mg2+ or Mn2+; 23 or 30 C; purified recombinant protein
T2 sequence: T1 sequence with Q2E, L233S, V286M, R369A, F503A, F504A

[3] = test system: T3, Hermes transposase delta497-516 (Musca domestica); test: enzyme reaction in vitro; conditions: 5'-phosphate on SEQ 9 strand; dimeric mutant; more active than native enzyme at 23 and 30 C; Mg2+ or Mn2+; purified recombinant protein
T3 sequence: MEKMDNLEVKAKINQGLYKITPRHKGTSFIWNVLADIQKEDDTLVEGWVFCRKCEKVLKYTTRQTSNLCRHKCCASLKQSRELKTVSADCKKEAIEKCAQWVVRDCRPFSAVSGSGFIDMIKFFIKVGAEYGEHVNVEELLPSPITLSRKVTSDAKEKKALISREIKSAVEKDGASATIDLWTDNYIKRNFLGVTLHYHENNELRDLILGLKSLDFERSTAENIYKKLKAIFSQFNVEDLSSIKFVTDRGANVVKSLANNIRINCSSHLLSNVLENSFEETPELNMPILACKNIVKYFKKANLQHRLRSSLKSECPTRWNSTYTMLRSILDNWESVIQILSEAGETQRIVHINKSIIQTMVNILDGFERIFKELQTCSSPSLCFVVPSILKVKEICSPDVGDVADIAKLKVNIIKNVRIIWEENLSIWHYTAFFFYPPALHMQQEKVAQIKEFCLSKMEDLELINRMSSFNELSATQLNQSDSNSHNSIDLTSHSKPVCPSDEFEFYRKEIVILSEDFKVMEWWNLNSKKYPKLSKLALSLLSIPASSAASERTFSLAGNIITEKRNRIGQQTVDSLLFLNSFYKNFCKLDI

[4] = test system: T1, Hermes transposase wild type (Musca domestica); test: enzyme reaction in vitro; conditions: 5'-phosphate on SEQ 9 strand; Mg2+ or Mn2+; 23 or 30 C; agarose gel of SEJ and DEJ products; purified recombinant protein

| Sequence | activity on this sequence [1] | activity on this sequence [2] | activity on this sequence [3] | activity on this sequence [4] |
| --- | --- | --- | --- | --- |
| ATAAGTAGCAAGTGGCGCATAAGTATCAAAATAAGCCACTTGTTGTTGTTCTCTG / CCAGAGAACAACAACAAGTGGCTTATTTTGATACTTATGCGCCACTTGCTACTTAT [Biotinylated Hermes LE] | active | – | – | – |
| TCAGAGAACAACAACAAGTGGCTTATTTTGA / TCAAAATAAGCCACTTGTTGTTGTTCTCTG [Pre-cleaved Hermes left end (L-end)] | – | active | active | active |
